Assay results published in patent publication US20240132579A1 (DOTBIO PTE, published 2024).
Results are given in words; binding and its absence hold for the method and conditions named. Some binding calls cover weakened binding; strength is not graded here.

Tests used:
[1] = target: T1, Human VEGF-121 (Acro Biosystems) (human, UniProt P15692 207-395); assay: competitive ELISA: VEGFR1 coated on the plate, human VEGF-121 at 0.5 nM pre-mixed with the binder; the blocked partner is VEGFR1
T1 construct: Bought protein; also called human VEGFA
T1 sequence: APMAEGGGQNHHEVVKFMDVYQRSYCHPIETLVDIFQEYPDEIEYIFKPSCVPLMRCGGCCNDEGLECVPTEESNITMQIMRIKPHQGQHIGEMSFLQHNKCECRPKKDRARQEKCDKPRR

[2] = target: T1, Human VEGF-121 (Acro Biosystems); assay: competitive ELISA: VEGFR1 coated on the plate, human VEGF-121 pre-mixed with the binder; the blocked partner is VEGFR1
[3] = target: T2, biotinylated murine VEGF-164 (Acro Biosystem) (mouse) (UniProt Q00731); assay: BLI (conclusion of the examples)
T2 sequence (biotinylated (site not stated), looked up): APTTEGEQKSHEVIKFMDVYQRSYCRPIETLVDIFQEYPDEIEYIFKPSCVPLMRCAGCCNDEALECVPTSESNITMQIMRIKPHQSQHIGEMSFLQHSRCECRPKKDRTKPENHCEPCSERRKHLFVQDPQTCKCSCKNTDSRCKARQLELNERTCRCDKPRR

[4] = target: Biotinylated human VEGF-165 (Acro Biosystem) (human) (UniProt P15692); assay: BLI (conclusion of the examples)
[5] = target: T2, biotinylated murine VEGF-164 (Acro Biosystem) (mouse); assay: BLI
[6] = target: Biotinylated human VEGF-165 (Acro Biosystem) (human) (UniProt P15692); assay: BLI
[7] = target: T2, biotinylated murine VEGF-164 (Acro Biosystem) (mouse); assay: BLI, biotinylated murine VEGF-164 on streptavidin tips, DotBody in solution
[8] = target: Biotinylated human VEGF-165 (Acro Biosystem) (human) (UniProt P15692); assay: BLI, biotinylated human VEGF-165 on streptavidin tips; DotBody at 250 nM after 1 h at room temperature, 60, 70 or 80 °C and centrifugation
[9] = target: Biotinylated human VEGF-165 (Acro Biosystem) (human) (UniProt P15692); assay: BLI at 250 nM after 1 h heat challenge
[10] = target: Biotinylated human VEGF-165 (Acro Biosystem) (human) (UniProt P15692); assay: BLI, biotinylated human VEGF-165 on streptavidin tips, DotBody in solution
[11] = target: Biotinylated human VEGF-165 (Acro Biosystem) (human) (UniProt P15692); assay: BLI at 250 nM after heat challenge

Measured: binding

B1: anti-VEGFA DotBody 16C2.1 (VHH)
VHH: EVQLVESGGGLVQPGGSLRLSCAISGFSLAATDIDWVRQAPGKGLEWVARIFSPSDFTDYADSVKGRFTISADTSKNTVYLQMNSLRAEDTAVYYCGRPDTYAYNIFLDTPTYNALHYRGQGTLVTVSS
notes: Humanized, stabilized autonomous VH domain (single domain antibody, 'DotBody') derived from the trastuzumab VH
binds: all assays above

B2: anti-VEGFA DotBody 21A5.1 (VHH)
VHH: EVQLVESGGGLVQPGGSLRLSCAISGFSLVETDIDWVRQAPGKGLEWVARIFLPSGSTYYADSVKGRFTISADTSKNTVYLQMNSLRAEDTAVYYCGSPDTYAYNIFLDTPAYKGLSYRGQGTLVTVSS
not listed: [1]
binds: all other assays above
